Primary screen of a compound library

Chains of the proteins cited; added tags and fusions are not shown. Residues count along the entry.
UniProt P9WNZ1, whole entry: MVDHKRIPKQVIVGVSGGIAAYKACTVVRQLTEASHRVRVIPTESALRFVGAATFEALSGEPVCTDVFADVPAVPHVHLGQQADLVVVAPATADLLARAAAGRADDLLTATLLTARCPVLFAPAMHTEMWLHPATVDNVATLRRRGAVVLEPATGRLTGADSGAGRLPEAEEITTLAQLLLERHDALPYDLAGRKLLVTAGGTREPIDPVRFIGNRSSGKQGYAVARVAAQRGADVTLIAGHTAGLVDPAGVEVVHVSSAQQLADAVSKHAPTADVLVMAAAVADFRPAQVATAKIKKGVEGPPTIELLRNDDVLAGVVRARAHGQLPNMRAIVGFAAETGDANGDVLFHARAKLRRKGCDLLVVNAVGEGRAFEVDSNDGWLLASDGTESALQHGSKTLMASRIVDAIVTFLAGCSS
UniProt I6X8D2, whole entry: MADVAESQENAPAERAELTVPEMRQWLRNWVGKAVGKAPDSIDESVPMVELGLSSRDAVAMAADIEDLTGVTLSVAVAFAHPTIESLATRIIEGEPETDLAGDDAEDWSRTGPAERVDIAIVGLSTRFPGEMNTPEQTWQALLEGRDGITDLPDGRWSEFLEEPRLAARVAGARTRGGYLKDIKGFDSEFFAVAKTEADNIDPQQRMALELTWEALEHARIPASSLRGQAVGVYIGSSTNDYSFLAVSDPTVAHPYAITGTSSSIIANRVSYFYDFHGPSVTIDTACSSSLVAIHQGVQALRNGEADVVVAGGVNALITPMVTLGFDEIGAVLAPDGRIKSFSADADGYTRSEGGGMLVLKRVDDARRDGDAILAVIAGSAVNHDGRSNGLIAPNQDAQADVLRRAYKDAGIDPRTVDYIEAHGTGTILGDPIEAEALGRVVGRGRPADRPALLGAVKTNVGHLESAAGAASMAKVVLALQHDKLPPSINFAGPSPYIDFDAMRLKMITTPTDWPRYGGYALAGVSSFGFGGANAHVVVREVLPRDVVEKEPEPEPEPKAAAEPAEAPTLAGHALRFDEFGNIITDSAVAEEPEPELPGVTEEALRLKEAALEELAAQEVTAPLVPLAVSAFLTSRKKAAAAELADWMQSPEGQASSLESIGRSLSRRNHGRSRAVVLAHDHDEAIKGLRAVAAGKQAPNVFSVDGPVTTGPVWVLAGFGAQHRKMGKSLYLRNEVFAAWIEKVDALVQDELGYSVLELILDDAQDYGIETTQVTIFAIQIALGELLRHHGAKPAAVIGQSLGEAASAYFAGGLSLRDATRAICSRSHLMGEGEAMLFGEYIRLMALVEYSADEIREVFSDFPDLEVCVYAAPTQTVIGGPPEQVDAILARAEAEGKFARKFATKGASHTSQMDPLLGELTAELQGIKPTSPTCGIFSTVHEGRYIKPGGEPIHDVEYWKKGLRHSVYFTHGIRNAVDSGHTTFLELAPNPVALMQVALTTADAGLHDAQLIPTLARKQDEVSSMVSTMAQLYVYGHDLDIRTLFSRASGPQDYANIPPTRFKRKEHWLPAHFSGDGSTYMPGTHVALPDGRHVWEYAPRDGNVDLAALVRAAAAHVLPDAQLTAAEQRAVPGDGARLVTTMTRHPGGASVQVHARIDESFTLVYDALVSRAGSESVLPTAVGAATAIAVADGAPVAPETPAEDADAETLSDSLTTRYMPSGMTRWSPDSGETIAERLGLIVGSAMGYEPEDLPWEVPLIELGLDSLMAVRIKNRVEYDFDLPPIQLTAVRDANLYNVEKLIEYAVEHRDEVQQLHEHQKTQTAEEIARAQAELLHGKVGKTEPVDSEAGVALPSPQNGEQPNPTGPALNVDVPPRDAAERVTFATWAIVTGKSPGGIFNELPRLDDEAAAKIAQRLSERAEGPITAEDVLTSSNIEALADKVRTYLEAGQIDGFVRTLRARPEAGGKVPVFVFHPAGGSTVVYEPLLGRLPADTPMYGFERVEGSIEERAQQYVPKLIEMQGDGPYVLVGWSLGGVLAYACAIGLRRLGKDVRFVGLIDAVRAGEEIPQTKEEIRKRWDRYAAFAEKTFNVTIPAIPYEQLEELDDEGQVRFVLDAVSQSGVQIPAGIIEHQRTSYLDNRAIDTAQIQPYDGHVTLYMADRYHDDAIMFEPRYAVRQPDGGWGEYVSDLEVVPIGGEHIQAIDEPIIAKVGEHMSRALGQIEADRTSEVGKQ
UniProt P9WPC5, whole entry: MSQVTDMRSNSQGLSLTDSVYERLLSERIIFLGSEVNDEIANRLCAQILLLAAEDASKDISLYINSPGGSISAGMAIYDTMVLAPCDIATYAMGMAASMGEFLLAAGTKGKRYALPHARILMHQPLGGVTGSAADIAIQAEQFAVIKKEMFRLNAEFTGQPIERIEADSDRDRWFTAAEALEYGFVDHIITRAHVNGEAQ
UniProt P9WPC3, whole entry partner: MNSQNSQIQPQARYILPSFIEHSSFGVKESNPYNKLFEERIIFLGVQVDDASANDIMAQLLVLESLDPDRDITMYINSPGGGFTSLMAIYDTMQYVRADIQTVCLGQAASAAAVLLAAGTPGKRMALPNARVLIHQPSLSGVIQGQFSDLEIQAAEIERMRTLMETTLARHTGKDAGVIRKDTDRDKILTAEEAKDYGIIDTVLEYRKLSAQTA
UniProt A4I591, 1-473: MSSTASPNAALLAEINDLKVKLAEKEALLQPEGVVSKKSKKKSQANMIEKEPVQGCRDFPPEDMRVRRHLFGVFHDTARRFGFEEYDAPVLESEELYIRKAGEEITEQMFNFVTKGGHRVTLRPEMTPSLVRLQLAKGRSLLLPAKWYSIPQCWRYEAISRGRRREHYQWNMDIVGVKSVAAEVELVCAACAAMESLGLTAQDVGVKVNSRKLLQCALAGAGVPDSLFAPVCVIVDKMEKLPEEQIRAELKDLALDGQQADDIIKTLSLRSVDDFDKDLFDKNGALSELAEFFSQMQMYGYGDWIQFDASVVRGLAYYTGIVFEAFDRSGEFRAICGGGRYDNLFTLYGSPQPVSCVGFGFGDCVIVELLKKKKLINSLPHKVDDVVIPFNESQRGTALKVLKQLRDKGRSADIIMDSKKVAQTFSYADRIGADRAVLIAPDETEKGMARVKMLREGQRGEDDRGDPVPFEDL
UniProt P9WFT3, whole entry: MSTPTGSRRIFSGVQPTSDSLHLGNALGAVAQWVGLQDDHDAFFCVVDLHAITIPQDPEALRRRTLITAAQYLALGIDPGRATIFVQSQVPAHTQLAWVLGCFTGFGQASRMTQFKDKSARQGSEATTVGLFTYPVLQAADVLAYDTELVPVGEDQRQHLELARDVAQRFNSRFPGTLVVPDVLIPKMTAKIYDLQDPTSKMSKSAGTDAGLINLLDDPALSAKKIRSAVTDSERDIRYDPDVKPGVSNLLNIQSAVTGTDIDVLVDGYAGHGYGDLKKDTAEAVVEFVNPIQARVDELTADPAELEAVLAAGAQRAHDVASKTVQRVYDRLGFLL

CoaBC: 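Coenzyme A biosynthesis protein CoaBC, Mycobacterium tuberculosis (UniProt P9WNZ1). Enzyme assay of CoaBC with a phosphate dye (Biomol Green) read at 650 nm. Concentration: 30 µM. Direction is inferred from only a few compounds that gave an IC50; most scored high, so higher reads as stronger inhibition. Most strong results did not repeat in a second test. About 67,000 compounds were tested under these conditions; 0.06% (about 40) showed 50% or more at least once.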
Pks13 thioesterase: 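Polyketide synthase Pks13, Mycobacterium tuberculosis (UniProt I6X8D2). Enzyme assay of the thioesterase domain of polyketide synthase 13; the read-out is not stated. Compounds at 30 µM. The record gives no direction; the compounds picked for IC50 retests had high values, so higher reads as stronger inhibition. About 67,000 compounds were tested under these conditions; 0.46% (about 300) showed 50% or more at least once.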
ClpP1P2: 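ClpP1P2, Mycobacterium tuberculosis (UniProt P9WPC5 and UniProt P9WPC3). Protease assay of ClpP1P2, read by the AMC dye that it sets free. Compounds at 50 µM. Direction is inferred from only a few compounds that gave an IC50; most scored high, so higher reads as stronger inhibition. Most other retested compounds had strongly negative values. Of about 69,000 compounds tested this way, about 10 (0.015%) reached 50% or more in at least one test.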
Toxoplasma: 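Assay of Toxoplasma gondii numbers, read through their beta-galactosidase reporter with a colour substrate. Compounds at 10 µM. The record gives no direction; the compounds picked for IC50 retests had high values, so higher reads as fewer parasites. Of about 67,000 compounds tested this way, about 260 (0.38%) reached 50% or more in at least one test.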
LiHisRS: 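Enzyme assay of histidyl-tRNA synthetase; the read-out is not stated. Target: Histidine-tRNA ligase, Leishmania infantum (UniProt A4I591). Concentration: 30 µM. The record gives no direction; compounds that gave an IC50 in retests scored well above the rest, so higher reads as stronger inhibition. The assay is labelled LdHisRS but filed under L. infantum. About 69,000 compounds were tested under these conditions; 0.6% (about 410) showed 50% or more at least once.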
MtTrpRS: 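Enzyme assay of tryptophanyl-tRNA synthetase; the read-out is not stated. Target: Tryptophan-tRNA ligase, Mycobacterium tuberculosis (UniProt P9WFT3). Compounds at 10 µM. Direction is not recorded; retested compounds ran higher, which suggests that high means inhibition. About 65,000 compounds were tested under these conditions; 0.098% (about 64) showed 50% or more at least once.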

Values are the deposited “Percent Effect”, in %.
The record does not define 0% and 100%; most values in the screen are far below 50% and negative numbers occur (in some assays of this library far below -100).
Compounds were drawn at random from those tested, without regard to their results.
Two or more numbers in one place are separate tests of the same structure; such repeats can differ widely.
A dash means the value is not listed here; it may have been measured.

{"smiles": "CC1c2ncc(Cn3cccn3)n2CCN1Cc1ccccn1.O=C(O)C(F)(F)F.O=C(O)C(F)(F)F", "stereo": "stereo not given", "Toxoplasma": -20.99}
{"smiles": "Cc1cc(NS(=O)(=O)c2ccc(Cl)s2)ccc1-n1cccc1C(=O)O", "CoaBC": -7.025, "Pks13 thioesterase": -14.2, "ClpP1P2": 2.626, "Toxoplasma": -0.3488, "LiHisRS": -0.8929, "MtTrpRS": 6.3}
{"smiles": "Cc1[nH]c(-c2ccccc2)nc1C(=O)N1CCc2[nH]cnc2C1C(=O)O", "stereo": "stereo not given", "CoaBC": 2.314, "Pks13 thioesterase": -18.88, "ClpP1P2": 1.681, "Toxoplasma": -1.269, "LiHisRS": 4.167, "MtTrpRS": -4.931}
{"smiles": "CCc1nc(C)sc1CN1CC[C@](C)(O)[C@H](C)C1", "CoaBC": -1.942, "Pks13 thioesterase": -3.71, "ClpP1P2": 6.87, "Toxoplasma": 2.454, "LiHisRS": 23.81, "MtTrpRS": 0.7199}
{"smiles": "CCN(CC(C)O)C(=O)Nc1cnn(CCOC)c1", "stereo": "stereo not given", "CoaBC": 3.686, "Pks13 thioesterase": 8.466, "ClpP1P2": 15.25, "Toxoplasma": 2.736, "LiHisRS": 13.49, "MtTrpRS": -4.257}
{"smiles": "CC(C)NC(=O)CS(=O)(=O)c1cc2c(cc1Cl)OCCO2", "CoaBC": -0.1965, "Pks13 thioesterase": -1.269, "ClpP1P2": -6.078, "Toxoplasma": 1.979, "LiHisRS": 6.14, "MtTrpRS": -3.216}
{"smiles": "Cn1ccnc1CN1CCC2(CCC(=O)N2CCN2CCCC2)CC1", "CoaBC": -2.836, "Pks13 thioesterase": -9.537, "ClpP1P2": -12.16, "LiHisRS": 2.778, "MtTrpRS": -6.294}
{"smiles": "CCOc1ccccc1-c1cc(N)[nH]n1.Cl", "Toxoplasma": 12.03}
{"smiles": "CN(CC(=O)NCc1ccco1)Cc1nc2c(s1)CCCC2", "CoaBC": 6.203, "Pks13 thioesterase": -17.22, "ClpP1P2": -8.876, "Toxoplasma": -3.714, "LiHisRS": 17.5, "MtTrpRS": 9.898}
{"smiles": "N#CC1(C(=O)N2CCN(Cc3cscn3)CC2)CCCC1", "CoaBC": -0.2571, "Pks13 thioesterase": -22.75, "ClpP1P2": 6.507, "LiHisRS": -7.865, "MtTrpRS": -1.495}
{"smiles": "CS(=O)(=O)N1CCN(C(=O)c2cc(-c3ccc(Br)s3)n[nH]2)CC1", "CoaBC": "31.84 and 19.07", "Pks13 thioesterase": -22.57, "ClpP1P2": 20.38, "Toxoplasma": 6.829, "LiHisRS": 1.099, "MtTrpRS": -0.9238}
{"smiles": "CC1CCC(NC(=O)NCC(C)(C)CCS(C)(=O)=O)CC1", "stereo": "stereo not given", "CoaBC": 6.84, "Pks13 thioesterase": -7.413, "ClpP1P2": -11.82, "Toxoplasma": -13.14, "LiHisRS": 5.495, "MtTrpRS": 0.4619}
{"smiles": "Cc1nnc(CNC(=O)CC2CCc3ccccc32)o1", "stereo": "stereo not given", "CoaBC": -1.202, "Pks13 thioesterase": -10.81, "ClpP1P2": -2.95, "Toxoplasma": -5.757, "LiHisRS": -12.5, "MtTrpRS": 0.6849}
{"smiles": "CCCN(C)c1ccc(C(=O)NCc2ccnc(C)n2)cc1", "CoaBC": 9.562, "Pks13 thioesterase": 0.8572, "ClpP1P2": 4.074, "Toxoplasma": -2.801, "LiHisRS": 21.92, "MtTrpRS": -0.8596}
{"smiles": "CC(=O)N1CCN(Cc2nnc(C(C)(C)C)o2)CC1", "CoaBC": -1.493, "Pks13 thioesterase": -8.229, "ClpP1P2": -5.306, "Toxoplasma": -4.155, "LiHisRS": 17.31, "MtTrpRS": -0.2322}
{"smiles": "Cn1ccnc1CN1CCN(CC2CC2)[C@@H]2CS(=O)(=O)C[C@@H]21", "CoaBC": 4.198, "Pks13 thioesterase": -9.983, "ClpP1P2": -18.46, "LiHisRS": 1.399, "MtTrpRS": -3.915}
{"smiles": "Cc1nnc(NC(=O)C(C)n2ncc(Br)c2C)s1", "stereo": "stereo not given", "CoaBC": 7.071, "Pks13 thioesterase": -27.37, "ClpP1P2": -1.041, "Toxoplasma": 2.605, "LiHisRS": 12.9, "MtTrpRS": 1.917}
{"smiles": "COc1ccc(CN2CCC(O)CC2)c(OC)c1", "CoaBC": -7.889, "ClpP1P2": -11.7, "Toxoplasma": 5.886, "LiHisRS": 11.54, "MtTrpRS": -2.399}
{"smiles": "CNC(=O)c1nc(CC(=O)Nc2cccc(C(F)(F)F)c2)no1", "CoaBC": 1.042, "Pks13 thioesterase": -16.27, "ClpP1P2": 13.01, "Toxoplasma": 14.05, "LiHisRS": 3.371, "MtTrpRS": -1.699}

Some entries from above, unchanged:

SMILES,CoaBC,Pks13 thioesterase,ClpP1P2,Toxoplasma,LiHisRS,MtTrpRS
CCN(CC(C)O)C(=O)Nc1cnn(CCOC)c1 (stereo not given),3.686%,8.466%,15.25%,2.736%,13.49%,-4.257%
Cn1ccnc1CN1CCC2(CCC(=O)N2CCN2CCCC2)CC1,-2.836%,-9.537%,-12.16%,-,2.778%,-6.294%

Source: ChEMBL document CHEMBL3988442, “University of Dundee, Small-Polar-MMV Screening Library” (2021).